Measurements: patent US20040171613A1, “Therapeutic agent for non-immediate type allergic diseases” (JAPAN TOBACCO INC., priority 2001, published 2004)
For at least one compound, name, drawing or mass did not settle the structure.

System: antigen-induced asthma
Assay: antigen-induced immediate type asthma, late-type asthma and airway hypersensitivity in guinea pigs
Type: in vivo, guinea pig
Conditions: oral, compound A 10, 30, 100 mg/kg, positive controls 30 mg/kg
Method: The test compound was further diluted to 20, 6 and 2 mg/mL on needed basis. As positive controls, 6 mg/mL pranlukast hydrate (extracted from Onon™ (Ono Pharmaceutical Co., Ltd.)) and 6 mg/mL prednisolone (Sigma) were similarly prepared.
Sensitization: Using an ultrasonic nebulizer (NE-U12; OMRON), a 6-weeks old male Hartley guinea pig (Kudo, Co., Ltd.) was continuously inhaled with 1% OVA (ovalbumin; Sigma)-containing physiological saline for 10 minutes per day for 8 consecutive days.
Antigen challenge: One week after the last sensitization, 2% OVA was similarly inhaled for 5 minutes. 24 hours before and one hour after the OVA challenge, metyrapone-containing physiological saline (Aldrich, 10 mg/mL) was administered intravenously and 30 minutes before the OVA induction, pyrilamine-containing physiological saline (Sigma, 10 mg/kg) was administered intraperitoneally.
During the 8 days of sensitization, the test compound was given one hour before the sensitization. On the day of the antigen challenge, the test compound was given one hour before the challenge. As solvent controls, the vehicle was similarly administered in accordance with OVA induction and physiological saline induction.
As positive controls, pranlukast hydrate was administered one hour before the challenge, while prednisolone was administered 16 hours and 2 hours before the challenge. The animals were fasted 16 to 18 hours before the oral administration.
Using total respiratory function analysis system (Pulmos-I, M.I.P.S. Company), the pre value was measured. Subsequently, specific airway resistance (hereinafter referred to as sRaw) per 100 breathes was measured one minute and 2, 4, 5, 6, 7 and 8 hours after the OVA challenge, and further once between 22 to 26 hours after the challenge, respectively. The average was used as sRaw at each measured time point. The increment ratio of sRaw was calculated by the following formula.
Increment ratio of sRaw (%)=[(sRaw at each measured time point −sRaw before the challenge)/(sRaw before the challenge)]×100 […]

O=C(Nc1cccc2c(=O)cc(-c3nnn[nH]3)oc12)c1ccc(OCCCCc2ccccc2)cc1 [pranlukast hydrate]
suppressed: airway hypersensitivity (PC100ACh) (22 to 26 hours after antigen challenge) | immediate type asthma response (sRaw immediately after antigen challenge) | late asthmatic response (sRaw over 4 to 8 hours after antigen challenge)
